{"source": "PubChem BioAssay AID1508600", "about": "(Functional Genomics Laboratory (NCATS/FGL), 2020)", "note": "Screen size: about 53,000 sequences; about 3,700 (7%) were called active.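 Rule for the calls: active = gene knockdowns whose robust z-score for IL-1 alpha signal is at least 2 or at most -2, so actives lie on both sides; inactive = the rest.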 This is one part of the list.", "data": [{"test": "Components of the Cytosolic LPS Sensing Pathway: Gene Identification via Genome-wide siRNA Screen;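 note: robust z of the log signal after scaling to non-targeting control siRNA wells of the plate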", "conditions": "RAW264.7 macrophages, IL-1a HTRF, actives lie on both sides, screened at 100 nM (by protocol), cells primed 5 h with Pam3CSK4 first", "method_in_brief": "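Knockdown: 100 nM siRNA, 48h, RAW264.7. Stimulation: Pam3CSK4 5 h, then LipidA via TransIT-TKO 24 h. Output: supernatant IL-1a HTRF, negative-control-normalized, log robust z-score; viability by CellTiter-Glo.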", "values": [{"sequence": "GGAGUUACCAAUUUUGAAATT against Txndc12", "z-score": "inactive: 0.0872"}, {"sequence": "CGACUAACAAAUUUGGUGATT against Tfec", "z-score": "inactive: -0.353"}, {"sequence": "GCAGUUGUACUGCUAGAAATT against Oprl1", "z-score": "inactive: 1.52"}, {"sequence": "GGGAAGAAGAAAUACUGCGTT against Gzmg", "z-score": "inactive: 1.76"}, {"sequence": "CCGUCACACAACACUGAUGTT against Ctla4", "z-score": "inactive: -0.0386"}, {"sequence": "GGAGUUUGGUAAAAUUGACTT against Dhrs7", "z-score": "inactive: -1.7"}, {"sequence": "GGUUUUCUGCAUAGAUUUUTT against Sgtb", "z-score": "inactive: 1.01"}, {"sequence": "GGAGCUGAUUCUGAUGAAGTT against Fbxo31", "z-score": "inactive: -0.577"}, {"sequence": "CGUGAUCGUGCGUUCCAACTT against Chrnb4", "z-score": "active: 3.11"}, {"sequence": "GGUCUUCGUGCUUUGUCAUTT against Slco2a1", "z-score": "inactive: -1.99"}, {"sequence": "GGUUCUUUCGAGAAUGGACTT against Nod1", "z-score": "inactive: -0.145"}, {"sequence": "GGAUGCAACUAAAAUCAGCTT against Vstm2b", "z-score": "inactive: -0.567"}, {"sequence": "GCAGUAUCUACAAGAGGAGTT against Septin12", "z-score": "inactive: 1.13"}, {"sequence": "GUGCCUAGUUUUCUGCAUGTT against Vmn1r85", "z-score": "inactive: 0.309"}, {"sequence": "GGGAUAGCUCUGCUCAGCATT against Olfr821", "z-score": "inactive: -0.771"}, {"sequence": "GGGACAAAGGUGUGAACUCTT against Dpysl4", "z-score": "inactive: 0.0855"}, {"sequence": "GGAGAUUUCCUGUAACUUUTT against Osbpl3", "z-score": "inactive: 0.369"}, {"sequence": "GGACAGAAAGCAAAGGCACTT against Mchr1", "z-score": "inactive: -1.12"}, {"sequence": "GGUUGAUCUGCAUUUUAUGTT against Slc4a10", "z-score": "inactive: -0.223"}, {"sequence": "GCGACAAGAGGCUUUAGCATT against Selenos", "z-score": "inactive: 0.692"}, {"sequence": "GCAAUCGAUGCAUUUAAUGTT against Pex5l", "z-score": "inactive: 0.253"}, {"sequence": "GGGACUCUAAAAACAAUGATT against Zkscan14", "z-score": "active: 2.67"}, {"sequence": "GCAUGGAGAGAACCUGAAATT against Trim69", "z-score": "inactive: -0.801"}, {"sequence": "GCUCAUGUAGGAUGUAUAUTT against Olfr146", "z-score": "inactive: -0.483"}, {"sequence": "GGAGUUAUGUUAUACCUCCTT against Dazl", "z-score": "inactive: 1.57"}, {"sequence": "GGCCGUCACUACUCUGAAATT against Mgst2", "z-score": "active: -2.29"}, {"sequence": "GGAGCACCAUUUCAGGAUATT against Cfap43", "z-score": "inactive: 0.691"}, {"sequence": "GCACUUGUCUUGAUUACAUTT against Fbxo4", "z-score": "inactive: 1.08"}, {"sequence": "CGUGUCGCACAGGUACUUUTT against Ccnq", "z-score": "inactive: -1.71"}, {"sequence": "GGACGGUGACAAGAACAACTT against Tnnc1", "z-score": "inactive: 1.72"}, {"sequence": "GGUCAUGACCCAUGUCAGCTT against Junb", "z-score": "inactive: -0.699"}, {"sequence": "CCAUCUCCUUAUGGGCAAUTT against Stat6", "z-score": "inactive: 1.59"}, {"sequence": "CGAUGAGAGUCCACUCCCATT against Cox18", "z-score": "active: -3.19"}, {"sequence": "GGAAUGACAAGAUUAUUGUTT against Ercc3", "z-score": "inactive: 0.157"}, {"sequence": "CCAUGCAUCUAAGUCUCGATT against Trpm3", "z-score": "inactive: 0.625"}, {"sequence": "CCGUGACCUAUAACGAAGATT against Fcf1", "z-score": "inactive: -0.967"}, {"sequence": "GGAAUACAGGUUUUCUUAATT against Raf1", "z-score": "inactive: 0.0212"}, {"sequence": "CCCAGAGCAUUCCUAUUACTT against Klrg2", "z-score": "active: -2.84"}, {"sequence": "GGUUUUAGAGGAGUUCUCCTT against Nectin1", "z-score": "inactive: -0.652"}, {"sequence": "GGAGAGGACUGUAAAGUGCTT against Tafa4", "z-score": "inactive: 1.52"}, {"sequence": "GCAAGUUCGAAUCCUCCGUTT against Dach2", "z-score": "active: 4.72"}, {"sequence": "GGGACAAAACCUUGACAGUTT against Vmn1r214", "z-score": "inactive: 0.181"}, {"sequence": "GAAAGACAAGAAGCAGAUGTT against Olig2", "z-score": "inactive: 1.05"}, {"sequence": "CCGGUGGUAGUUGGUUUAATT against Atp1b1", "z-score": "inactive: 1.55"}, {"sequence": "CCGAAGCAUUUUCCCAUCUTT against Slc22a20", "z-score": "inactive: -0.293"}, {"sequence": "CCUCUGUUUGUGCGCCAUATT against Uqcrfs1", "z-score": "inactive: 0.402"}, {"sequence": "CCCAUAUUUGUGGUAAACATT against Pcdh17", "z-score": "inactive: 0.245"}, {"sequence": "GGACAAUUUAACCAUCGUGTT against Tspan5", "z-score": "inactive: 0.939"}, {"sequence": "GGGUAAACACCCAUUUAGCTT against Lbx2", "z-score": "inactive: -0.156"}, {"sequence": "GGUUACCUACCUGAUGCCATT against Cd6", "z-score": "inactive: -0.0761"}, {"sequence": "GGAUUGUACGCUUUUAUGATT against Fzd1", "z-score": "inactive: 0.92"}, {"sequence": "CGUAGUCGAUUCAGGAGAGTT against Gm10439", "z-score": "inactive: -0.356"}, {"sequence": "GCAGUCUGGUUCUCUCAAATT against Cryl1", "z-score": "inactive: 1.13"}, {"sequence": "GGACUCAUGUUCAACACAGTT against Dimt1", "z-score": "inactive: -0.87"}, {"sequence": "CGCUAGUUUGGACGGUUUUTT against Odf3", "z-score": "inactive: 0.523"}, {"sequence": "CCUACUAGAUUCCUACUUUTT against Cenpo", "z-score": "inactive: 1.65"}, {"sequence": "CCCUAGGCCUUUUUUCUGCTT against Olfr930", "z-score": "inactive: 0.0834"}, {"sequence": "GGUGAAAAGCAGCUAACAATT against Fam135a", "z-score": "inactive: -1.6"}, {"sequence": "GGACAAGUACCAGCAGCAGTT against Spry2", "z-score": "inactive: 0.332"}, {"sequence": "CCCUAGAAUGGGAAUGUCATT against Tmem116", "z-score": "inactive: -0.407"}, {"sequence": "GGCUGUGCAUACCAUGUUGTT against Dse", "z-score": "inactive: 0.181"}, {"sequence": "GGCCGAUUGUUGGACAUUCTT against Card11", "z-score": "inactive: 0.00438"}, {"sequence": "GGAUAUCAAUAGCCUCAACTT against Stx5a", "z-score": "inactive: -0.804"}, {"sequence": "GGAAUUCAAGGGCUCCACATT against Grip1", "z-score": "inactive: 0.378"}, {"sequence": "CCUCAAACUCGGUUUGAUUTT against Acp6", "z-score": "inactive: -0.773"}, {"sequence": "GGAGUUUCAGAGCAAGCAGTT against Atp6v1g2", "z-score": "inactive: 1.73"}, {"sequence": "GCGUGACGAGCUAACAGAATT against Stac2", "z-score": "inactive: -0.178"}, {"sequence": "GGUUUGUGACAUUAUCUGCTT against Wrnip1", "z-score": "active: 2.36"}, {"sequence": "GGUGUCAGUAUUUCCUUCATT against Spg11", "z-score": "inactive: -0.177"}, {"sequence": "GGGCAGCUACGUCAUUAAGTT against Prkg2", "z-score": "inactive: -0.442"}, {"sequence": "GGACGAGGUAGCUUAUUGCTT against Pnn", "z-score": "inactive: -0.606"}, {"sequence": "GGGUGUGAUGGUUCUCACCTT against Olfr777", "z-score": "inactive: 0.156"}, {"sequence": "CGAUGAUACAGACAGCAACTT against Wipf2", "z-score": "inactive: -0.386"}, {"sequence": "GGUCCCAUAUACCAGAUCUTT against Slc3a1", "z-score": "inactive: 1.63"}, {"sequence": "GGUGUCCAAUUGCCCUAUCTT against Tnfrsf12a", "z-score": "inactive: -1.98"}, {"sequence": "GCGCCUUAUGCAGGAAUACTT against Rabgap1", "z-score": "inactive: -1.36"}, {"sequence": "GGGUCCAUCAAGAAUUCUCTT against Rab5c", "z-score": "inactive: 0.93"}, {"sequence": "GCCACCACCAUAAAUAUAUTT against Rspo3", "z-score": "inactive: -1.5"}, {"sequence": "GCAAAAUCACGCUAACGACTT against Uts2", "z-score": "inactive: 0.0748"}, {"sequence": "GCUGGGUCAAACAUGACGUTT against Klhl17", "z-score": "inactive: 0.452"}, {"sequence": "GGAUGAUAUCGGAGCCUGCTT against Clec4g", "z-score": "inactive: 0.392"}, {"sequence": "GGUCCUGUUGAGAAUUUAATT against Zdhhc15", "z-score": "inactive: 0.464"}, {"sequence": "CCAACUGUUGGUGAUGAUGTT against Cpsf6", "z-score": "active: -2.05"}, {"sequence": "GGGUAAUAGGCACAGACCATT against Ooep", "z-score": "inactive: -0.673"}, {"sequence": "GGUUGGAGUUAUAGAUUUUTT against Rufy3", "z-score": "inactive: 1.42"}, {"sequence": "GGCCAGAUCACCAAGAUUCTT against Dcaf12", "z-score": "inactive: -0.522"}, {"sequence": "GGCUCCUCAAAGCUAAAAATT against 1700001C19Rik", "z-score": "inactive: 1.24"}, {"sequence": "CGACUACUGCCUGAACUCUTT against Gsdmc3", "z-score": "inactive: 0.446"}, {"sequence": "GGCAUUCUUUGGGAAGUAGTT against Slc9a2", "z-score": "inactive: -0.813"}, {"sequence": "CGCUUUACCUUCCCGUUUATT against Xkrx", "z-score": "inactive: -1.71"}, {"sequence": "GCUUUUUCUACGCGUCUCATT against 1700084P21Rik", "z-score": "inactive: -1.12"}, {"sequence": "GGAAGCCAUGUUUGGAAGATT against Lce1c", "z-score": "inactive: -1.26"}, {"sequence": "GGAAUCGCCAUCUGCAUCUTT against Cyyr1", "z-score": "inactive: 0.358"}, {"sequence": "GCAUUUCACCUGGAGCCUUTT against Zfp108", "z-score": "inactive: -1.11"}, {"sequence": "GGGAAACUCAAACUGAUUGTT against 9930104L06Rik", "z-score": "inactive: 0.0417"}, {"sequence": "GGAAAACACAAGCAAUACATT against Pus3", "z-score": "inactive: 0.3"}, {"sequence": "GGCUAGUGGUUUAUUUAUGTT against Pafah1b1", "z-score": "inactive: -0.506"}, {"sequence": "GGGAUUCGGUGAAGAUUUGTT against Nfe2l1", "z-score": "inactive: -0.736"}, {"sequence": "GGCUGGGCUCUAUGGAUUATT against Fasn", "z-score": "inactive: -0.821"}, {"sequence": "GGCAAUGUGUAGGUGCAAATT against A130050O07Rik", "z-score": "inactive: 1.38"}, {"sequence": "CGACAGUUACUUGCCCAGATT against Rasgrp3", "z-score": "inactive: -1.36"}, {"sequence": "GCUGUAAAAUUGUUCCUAATT against Pebp4", "z-score": "inactive: -1.03"}, {"sequence": "GGACAAGCUGAGGUGAAAATT against Maats1", "z-score": "inactive: -1.08"}, {"sequence": "GGAAGGAGAAAAGCUUUCUTT against Olfr992", "z-score": "inactive: -0.46"}, {"sequence": "GGAAAACAGAUACGUGCAUTT against Ccne2", "z-score": "inactive: 0.212"}, {"sequence": "GCGACGAGAAGAAUCUGCUTT against Mtcl1", "z-score": "inactive: -0.641"}, {"sequence": "CCCAGUAAUCCGUUACAAATT against Cyp51", "z-score": "inactive: -0.123"}]}]}
